Measured values taken from article PMC5996148.
Values joined by “and” are separate entries in the source; they are usually repeats but may differ in a detail not shown here. Equal entries are not always repeated. The list shows a part of the results.

Key:
Assay in all cases: protein microarray (ProtoArray v5.0), streptavidin-Alexa Fluor 647
Conditions in all cases: 3'-biotin; 20 mM Tris (pH 7.5), 5 mM MgCl2, 100 mM KCl, 0.1% Tween-20, A/T-rich and random oligonucleotide blockers; temperature not stated; high values mean tight binding
[1] = system: cDNA clone MGC:39134 IMAGE:4892821 (human)
[2] = system: cDNA clone MGC:40177 IMAGE:5167345, complete cds (human)
[3] = system: cDNA clone MGC:48448 IMAGE:5266019 (human)
[4] = system: cDNA clone MGC:52019 IMAGE:5188979 (human)
[5] = system: cDNA clone MGC:70358 IMAGE:5539182 (human)
[6] = system: cDNA clone MGC:75009 IMAGE:5170001 (human)
[7] = system: cDNA clone MGC:8430 IMAGE:2821116 (human)
[8] = system: cDNA clone MGC:88809 IMAGE:6279986 (human)
guanine-9- (human) = system: guanine-9- (human)
[9] = system: hypothetical LOC554201 (human)
[10] = system: in the protein list file (human)
juvenile (human) = system: juvenile (human)
[11] = system: mRNA similar to hypothetical protein FLJ20234 (human)
[12] = system: protein for MGC:19786 (human)
rC (human) = system: rC (human)

Question: Which results are given for “GGGGACAGGGGTATGGGGAGGGG [G4-3 biotinylated (CtG)]”?
Answer: binding signal [1]: -0.332 z-score; binding signal [2]: -0.328 z-score; binding signal [3]: -0.324 z-score; binding signal [4]: -0.322 z-score; binding signal [5]: -0.331 z-score; binding signal [6]: -0.337 z-score; binding signal [7]: -0.329 z-score; binding signal [8]: -0.324 z-score; binding signal (guanine-9- (human)): 4.73 z-score and 4.57 z-score; binding signal [9]: -0.331 z-score; binding signal [10]: -0.307 z-score; binding signal (juvenile (human)): -0.318 z-score; binding signal [11]: -0.325 z-score; binding signal [12]: -0.34 z-score; binding signal (rC (human)): -0.32 z-score
